From the supplement of paper PMC6411743 come the findings set out here.

Sequences of proteins named here, by UniProt entry; tags and fusion partners are left off. A change or cut given only in a name is not applied to a line headed by its entry.
UniProt Q9GZQ3, whole entry: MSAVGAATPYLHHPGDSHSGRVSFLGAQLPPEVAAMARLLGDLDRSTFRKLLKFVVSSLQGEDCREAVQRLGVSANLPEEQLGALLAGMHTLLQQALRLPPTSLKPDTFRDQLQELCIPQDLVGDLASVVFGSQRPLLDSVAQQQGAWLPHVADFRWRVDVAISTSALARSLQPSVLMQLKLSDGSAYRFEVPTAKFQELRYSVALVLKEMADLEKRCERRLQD
UniProt Q9HBI0: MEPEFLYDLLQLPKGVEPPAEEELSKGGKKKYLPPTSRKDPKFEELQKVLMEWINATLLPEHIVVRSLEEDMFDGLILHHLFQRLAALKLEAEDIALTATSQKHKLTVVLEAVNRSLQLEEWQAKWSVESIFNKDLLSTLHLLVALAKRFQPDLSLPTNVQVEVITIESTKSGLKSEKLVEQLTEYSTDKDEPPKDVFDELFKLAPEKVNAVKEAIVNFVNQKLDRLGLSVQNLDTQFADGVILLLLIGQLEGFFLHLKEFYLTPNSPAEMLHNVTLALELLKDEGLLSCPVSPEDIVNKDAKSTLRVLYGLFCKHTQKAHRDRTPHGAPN
UniProt Q9H1E3: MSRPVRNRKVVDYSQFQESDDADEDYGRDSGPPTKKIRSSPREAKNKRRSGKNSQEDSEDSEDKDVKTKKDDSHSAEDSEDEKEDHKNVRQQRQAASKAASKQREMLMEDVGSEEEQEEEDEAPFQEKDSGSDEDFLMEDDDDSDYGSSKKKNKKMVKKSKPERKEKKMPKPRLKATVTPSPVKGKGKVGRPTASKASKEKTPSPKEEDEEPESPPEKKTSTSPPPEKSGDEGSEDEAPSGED
UniProt Q9HA77: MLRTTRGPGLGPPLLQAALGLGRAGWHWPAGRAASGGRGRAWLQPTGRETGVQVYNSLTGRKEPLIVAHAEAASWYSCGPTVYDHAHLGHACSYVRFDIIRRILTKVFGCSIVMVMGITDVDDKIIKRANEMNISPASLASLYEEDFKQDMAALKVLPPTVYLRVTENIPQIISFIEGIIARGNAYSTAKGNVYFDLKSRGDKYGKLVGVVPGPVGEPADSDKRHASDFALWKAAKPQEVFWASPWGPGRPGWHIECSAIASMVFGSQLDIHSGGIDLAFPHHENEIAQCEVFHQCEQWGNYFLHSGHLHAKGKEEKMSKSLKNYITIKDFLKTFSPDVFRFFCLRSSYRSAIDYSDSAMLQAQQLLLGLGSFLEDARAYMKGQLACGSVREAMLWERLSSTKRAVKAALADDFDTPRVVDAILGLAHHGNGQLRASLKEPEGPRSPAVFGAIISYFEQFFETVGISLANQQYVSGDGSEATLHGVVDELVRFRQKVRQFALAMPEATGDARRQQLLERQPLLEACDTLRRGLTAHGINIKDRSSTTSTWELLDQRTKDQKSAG
UniProt Q9H6R6: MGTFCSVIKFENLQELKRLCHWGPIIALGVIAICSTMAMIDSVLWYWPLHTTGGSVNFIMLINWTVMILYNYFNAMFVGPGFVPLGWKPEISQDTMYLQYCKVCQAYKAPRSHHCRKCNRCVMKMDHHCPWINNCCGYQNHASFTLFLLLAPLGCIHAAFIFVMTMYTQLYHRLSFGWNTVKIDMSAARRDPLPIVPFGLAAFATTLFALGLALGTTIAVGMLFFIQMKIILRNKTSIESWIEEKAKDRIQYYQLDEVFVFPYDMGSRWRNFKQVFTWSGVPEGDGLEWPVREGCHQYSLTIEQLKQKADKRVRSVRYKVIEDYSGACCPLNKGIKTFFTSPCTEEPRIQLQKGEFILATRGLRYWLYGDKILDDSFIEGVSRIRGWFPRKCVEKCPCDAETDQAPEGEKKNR
UniProt Q9H981, whole entry: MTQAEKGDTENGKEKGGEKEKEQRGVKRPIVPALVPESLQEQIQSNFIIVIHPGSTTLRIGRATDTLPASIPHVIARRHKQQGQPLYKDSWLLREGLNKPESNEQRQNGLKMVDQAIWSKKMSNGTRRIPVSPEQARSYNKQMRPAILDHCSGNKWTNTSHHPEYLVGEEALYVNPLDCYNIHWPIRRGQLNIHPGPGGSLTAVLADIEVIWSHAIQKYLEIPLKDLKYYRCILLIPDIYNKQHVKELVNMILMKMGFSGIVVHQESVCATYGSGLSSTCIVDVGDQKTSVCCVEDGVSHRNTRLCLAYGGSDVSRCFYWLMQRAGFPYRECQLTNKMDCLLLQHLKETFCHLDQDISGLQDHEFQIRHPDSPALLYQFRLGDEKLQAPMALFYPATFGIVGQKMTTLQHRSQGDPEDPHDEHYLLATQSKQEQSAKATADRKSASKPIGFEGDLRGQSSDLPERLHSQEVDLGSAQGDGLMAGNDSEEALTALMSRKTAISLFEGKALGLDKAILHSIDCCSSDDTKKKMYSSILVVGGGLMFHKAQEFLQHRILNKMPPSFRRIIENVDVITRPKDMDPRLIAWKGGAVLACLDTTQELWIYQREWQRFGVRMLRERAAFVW
UniProt Q9H6K5: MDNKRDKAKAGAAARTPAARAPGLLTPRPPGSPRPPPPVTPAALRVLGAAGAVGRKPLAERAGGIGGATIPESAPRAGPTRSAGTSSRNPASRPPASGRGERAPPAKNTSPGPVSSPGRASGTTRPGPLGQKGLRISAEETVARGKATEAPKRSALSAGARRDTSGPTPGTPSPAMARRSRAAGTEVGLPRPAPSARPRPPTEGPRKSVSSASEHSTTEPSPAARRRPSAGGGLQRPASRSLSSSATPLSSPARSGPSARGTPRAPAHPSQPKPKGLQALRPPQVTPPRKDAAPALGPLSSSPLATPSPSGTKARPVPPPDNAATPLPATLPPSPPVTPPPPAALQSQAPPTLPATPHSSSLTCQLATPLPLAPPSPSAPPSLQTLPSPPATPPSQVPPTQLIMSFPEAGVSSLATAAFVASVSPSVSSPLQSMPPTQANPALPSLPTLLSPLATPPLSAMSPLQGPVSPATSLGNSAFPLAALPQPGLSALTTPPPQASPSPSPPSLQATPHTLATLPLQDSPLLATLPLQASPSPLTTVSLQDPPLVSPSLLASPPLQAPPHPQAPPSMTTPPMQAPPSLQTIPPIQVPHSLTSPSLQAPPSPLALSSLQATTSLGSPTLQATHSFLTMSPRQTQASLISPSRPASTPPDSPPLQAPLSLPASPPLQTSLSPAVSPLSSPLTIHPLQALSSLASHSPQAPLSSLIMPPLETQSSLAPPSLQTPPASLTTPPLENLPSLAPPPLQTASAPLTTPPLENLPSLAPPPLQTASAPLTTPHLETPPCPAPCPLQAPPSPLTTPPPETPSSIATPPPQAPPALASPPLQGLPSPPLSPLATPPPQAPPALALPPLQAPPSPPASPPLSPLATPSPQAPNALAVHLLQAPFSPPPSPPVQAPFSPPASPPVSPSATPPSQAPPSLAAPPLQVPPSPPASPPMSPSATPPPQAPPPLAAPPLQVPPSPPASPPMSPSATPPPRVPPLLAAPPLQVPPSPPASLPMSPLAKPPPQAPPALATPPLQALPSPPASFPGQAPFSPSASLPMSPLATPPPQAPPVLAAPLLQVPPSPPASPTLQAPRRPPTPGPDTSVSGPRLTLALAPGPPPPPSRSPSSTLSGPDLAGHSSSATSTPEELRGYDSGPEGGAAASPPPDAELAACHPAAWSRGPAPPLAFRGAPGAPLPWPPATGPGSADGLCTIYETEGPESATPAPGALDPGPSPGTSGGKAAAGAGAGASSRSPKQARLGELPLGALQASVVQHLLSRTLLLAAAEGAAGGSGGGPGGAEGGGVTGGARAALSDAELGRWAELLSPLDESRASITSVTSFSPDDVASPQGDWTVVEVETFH
UniProt Q9H3Z4: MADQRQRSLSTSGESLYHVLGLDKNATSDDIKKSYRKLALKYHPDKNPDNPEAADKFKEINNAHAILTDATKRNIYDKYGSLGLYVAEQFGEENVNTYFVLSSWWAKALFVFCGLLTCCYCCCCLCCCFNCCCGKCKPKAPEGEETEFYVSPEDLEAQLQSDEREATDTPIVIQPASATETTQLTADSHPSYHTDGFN
UniProt Q9HD15: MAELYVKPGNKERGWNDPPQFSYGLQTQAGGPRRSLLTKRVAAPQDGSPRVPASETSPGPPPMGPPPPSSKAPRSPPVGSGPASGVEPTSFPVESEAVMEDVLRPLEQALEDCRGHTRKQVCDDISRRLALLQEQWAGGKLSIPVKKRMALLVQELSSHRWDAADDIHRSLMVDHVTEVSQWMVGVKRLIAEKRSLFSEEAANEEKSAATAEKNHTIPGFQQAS
UniProt Q9H3K6: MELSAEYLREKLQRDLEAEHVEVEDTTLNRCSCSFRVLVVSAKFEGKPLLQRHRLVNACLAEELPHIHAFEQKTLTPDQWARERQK
UniProt Q9HCE9: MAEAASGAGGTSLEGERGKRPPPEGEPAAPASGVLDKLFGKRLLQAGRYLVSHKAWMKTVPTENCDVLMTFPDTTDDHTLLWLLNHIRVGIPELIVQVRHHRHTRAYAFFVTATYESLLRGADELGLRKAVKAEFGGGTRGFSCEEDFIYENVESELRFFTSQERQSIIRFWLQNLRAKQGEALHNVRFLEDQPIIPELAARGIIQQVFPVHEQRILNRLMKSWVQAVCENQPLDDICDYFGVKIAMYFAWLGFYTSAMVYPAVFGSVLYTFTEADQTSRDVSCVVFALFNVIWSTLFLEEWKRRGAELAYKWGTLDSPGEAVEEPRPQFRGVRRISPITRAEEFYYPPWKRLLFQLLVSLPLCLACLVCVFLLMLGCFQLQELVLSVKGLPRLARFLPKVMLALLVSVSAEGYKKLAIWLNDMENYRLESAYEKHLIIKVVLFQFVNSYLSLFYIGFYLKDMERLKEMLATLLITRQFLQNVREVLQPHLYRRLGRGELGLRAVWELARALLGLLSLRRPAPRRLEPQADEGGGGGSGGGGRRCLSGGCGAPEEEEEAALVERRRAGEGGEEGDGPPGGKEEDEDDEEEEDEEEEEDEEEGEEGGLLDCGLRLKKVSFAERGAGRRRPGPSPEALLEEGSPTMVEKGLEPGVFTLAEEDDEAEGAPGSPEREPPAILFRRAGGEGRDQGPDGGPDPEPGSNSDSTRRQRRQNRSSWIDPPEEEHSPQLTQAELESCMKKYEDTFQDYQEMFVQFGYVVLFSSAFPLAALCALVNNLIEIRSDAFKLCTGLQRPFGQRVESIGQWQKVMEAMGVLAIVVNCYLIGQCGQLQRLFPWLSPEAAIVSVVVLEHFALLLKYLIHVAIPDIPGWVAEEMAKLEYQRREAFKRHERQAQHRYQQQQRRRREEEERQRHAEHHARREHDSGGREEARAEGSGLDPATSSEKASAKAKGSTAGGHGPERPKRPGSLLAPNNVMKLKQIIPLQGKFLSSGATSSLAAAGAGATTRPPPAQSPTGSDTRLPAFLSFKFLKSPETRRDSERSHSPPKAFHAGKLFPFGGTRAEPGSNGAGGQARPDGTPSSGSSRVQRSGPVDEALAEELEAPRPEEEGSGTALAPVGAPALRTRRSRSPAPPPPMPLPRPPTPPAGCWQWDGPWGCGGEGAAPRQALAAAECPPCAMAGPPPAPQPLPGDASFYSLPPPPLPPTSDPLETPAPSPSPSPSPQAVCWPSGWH
UniProt Q9HC07: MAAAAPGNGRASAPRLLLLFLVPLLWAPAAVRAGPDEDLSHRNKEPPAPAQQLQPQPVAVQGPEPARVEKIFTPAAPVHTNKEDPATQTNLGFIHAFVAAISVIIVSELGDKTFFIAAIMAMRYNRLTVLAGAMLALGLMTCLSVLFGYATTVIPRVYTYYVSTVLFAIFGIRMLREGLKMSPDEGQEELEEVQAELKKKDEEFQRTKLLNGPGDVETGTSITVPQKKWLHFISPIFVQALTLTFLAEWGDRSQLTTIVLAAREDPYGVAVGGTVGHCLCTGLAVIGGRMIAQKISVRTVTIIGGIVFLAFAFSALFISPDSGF
UniProt Q9H7B2: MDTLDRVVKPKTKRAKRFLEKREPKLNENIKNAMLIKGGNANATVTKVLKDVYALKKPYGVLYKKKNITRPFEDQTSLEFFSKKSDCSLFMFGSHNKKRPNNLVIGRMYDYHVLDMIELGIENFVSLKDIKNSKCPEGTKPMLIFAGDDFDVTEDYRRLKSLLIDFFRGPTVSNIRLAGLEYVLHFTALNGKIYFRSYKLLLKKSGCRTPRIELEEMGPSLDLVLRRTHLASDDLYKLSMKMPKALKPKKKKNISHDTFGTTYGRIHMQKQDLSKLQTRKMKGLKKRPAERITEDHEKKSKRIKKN
UniProt Q9NP72: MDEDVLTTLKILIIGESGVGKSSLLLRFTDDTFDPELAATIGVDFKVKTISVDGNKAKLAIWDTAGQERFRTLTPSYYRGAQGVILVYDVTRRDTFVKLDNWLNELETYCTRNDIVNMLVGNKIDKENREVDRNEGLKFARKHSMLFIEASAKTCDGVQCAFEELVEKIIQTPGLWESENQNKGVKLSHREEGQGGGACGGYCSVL
UniProt Q9HCN8: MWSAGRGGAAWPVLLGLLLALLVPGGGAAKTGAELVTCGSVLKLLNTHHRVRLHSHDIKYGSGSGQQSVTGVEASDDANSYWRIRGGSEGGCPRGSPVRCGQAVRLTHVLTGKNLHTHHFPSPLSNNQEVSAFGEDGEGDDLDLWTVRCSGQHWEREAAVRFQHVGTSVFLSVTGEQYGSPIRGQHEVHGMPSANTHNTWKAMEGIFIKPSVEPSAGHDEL

Compound in the experiment: Nc1ncnc2c1ncn2[C@@H]1O[C@H](COP(=O)(O)OP(=O)(O)OP(=O)(O)O)[C@@H](O)[C@H]1O [adenosine triphosphate]
Briefly: NP40-soluble protein abundance relative to vehicle (solubility fold change) (ratio); higher = more soluble protein in presence of ATP. The gist of the method: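 Each value is a fold change relative to the detergent-processed vehicle, calculated per replicate from vsn-normalised intensities. Jurkat crude lysate received eight concentrations (0.1 to 10 mM) for 10 min at room temperature and 3 min at 37 °C, then was solubilised in 0.8% NP40 with benzonase (60 min, 4 °C). The ultracentrifuged supernatant was TMT-labelled and run by LC-MS/MS in three independent experiments.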

± gives the standard deviation of the averaged measurements. The list shows a part of the results, in another mix than the full data. Small differences around the control level are noise.

AGO4 (UniProt Q9HCK5): the NP40-soluble protein abundance is, setting by setting: (concentration: 0.1mM) 1.03 ± 0.07; (concentration: 0.5mM) 1.01 ± 0.16.

Regarding UniProt Q9H936 and related entries, the NP40-soluble protein abundance worked out at 0.911 ± 0.053 (concentration: 0.1mM) and 0.931 ± 0.072 (concentration: 0.5mM).

In the case of SMYD3 (UniProt Q9H7B4), the NP40-soluble protein abundance is 1.09 ± 0.13 (concentration: 0.1mM) and 1.07 ± 0.093 (concentration: 0.5mM).

As to PARP12 (UniProt Q9H0J9), the NP40-soluble protein abundance runs as follows: (concentration: 0.1mM) 1.09 ± 0.046; (concentration: 0.5mM) 1.07 ± 0.018.

Regarding COMMD5 (UniProt Q9GZQ3), the NP40-soluble protein abundance by setting is: (concentration: 0.1mM) 0.892 ± 0.079; (concentration: 0.5mM) 0.782 ± 0.16.

As to UniProt Q9H0X9 and related entries, the NP40-soluble protein abundance runs as follows: (concentration: 0.1mM) 0.979 ± 0.082; (concentration: 0.5mM) 0.969 ± 0.041.

Turning to OSBPL3 (UniProt Q9H4L5), the NP40-soluble protein abundance runs as follows: (concentration: 0.1mM) 1.04 ± 0.019; (concentration: 0.5mM) 1.09 ± 0.048.

As for PARVG (UniProt Q9HBI0), the NP40-soluble protein abundance runs as follows: (concentration: 0.1mM) 0.998 ± 0.1; (concentration: 0.5mM) 1.03 ± 0.053.

With UniProt Q9HD26 and related entries, the NP40-soluble protein abundance reads like this: (concentration: 0.1mM) 1.01 ± 0.028; (concentration: 0.5mM) 1.03 ± 0.11.

Take GPN1 (UniProt Q9HCN4): the NP40-soluble protein abundance is, setting by setting: (concentration: 0.1mM) 1.02 ± 0.026; (concentration: 0.5mM) 0.992 ± 0.014.

For the target UniProt Q9H6D7 and related entries, the NP40-soluble protein abundance by setting is: (concentration: 0.1mM) 0.994 ± 0.12; (concentration: 0.5mM) 0.986 ± 0.082.

As for MRPL46 (UniProt Q9H2W6), the NP40-soluble protein abundance came to 0.922 ± 0.14 (concentration: 0.1mM) and 0.888 ± 0.15 (concentration: 0.5mM).

Take UPF2 (UniProt Q9HAU5): the NP40-soluble protein abundance was found to be 1.02 ± 0.022 (concentration: 0.1mM) and 1.02 ± 0.06 (concentration: 0.5mM).

UniProt Q9H9G7: the NP40-soluble protein abundance worked out at 1.07 ± 0.12 (concentration: 0.1mM) and 1.07 ± 0.13 (concentration: 0.5mM).

Take NUCKS1 (UniProt Q9H1E3): the NP40-soluble protein abundance runs as follows: (concentration: 0.1mM) 0.901 ± 0.086; (concentration: 0.5mM) 0.834 ± 0.1.

Regarding CARS2 (UniProt Q9HA77), the NP40-soluble protein abundance is, setting by setting: (concentration: 0.1mM) 1 ± 0.026; (concentration: 0.5mM) 0.972 ± 0.028.

UniProt Q9H7X7 and related entries: the NP40-soluble protein abundance amounted to 0.978 ± 0.029 (concentration: 0.1mM) and 1.01 ± 0.023 (concentration: 0.5mM).

For the target PHAX (UniProt Q9H814), the NP40-soluble protein abundance was found to be 0.997 ± 0.042 (concentration: 0.1mM) and 1.01 ± 0.061 (concentration: 0.5mM).

As to UniProt Q9H6R6 and related entries, the NP40-soluble protein abundance (concentration: 0.1mM) came out at 0.939 ± 0.086 and the NP40-soluble protein abundance (concentration: 0.5mM) came to 1.01 ± 0.12.

PNN (UniProt Q9H307): the NP40-soluble protein abundance was determined as 0.933 ± 0.1 (concentration: 0.1mM) and 1.01 ± 0.16 (concentration: 0.5mM).

As for PLEKHA3 (UniProt Q9HB20), the NP40-soluble protein abundance (concentration: 0.1mM) was found to be 1.05 ± 0.097 and the NP40-soluble protein abundance (concentration: 0.5mM) worked out at 1.01 ± 0.04.

With UniProt Q9H0G5, the NP40-soluble protein abundance was found to be 1.009 ± 0.0043 (concentration: 0.1mM) and 1.08 ± 0.048 (concentration: 0.5mM).

Regarding ACTR5 (UniProt Q9H9F9), the NP40-soluble protein abundance runs as follows: (concentration: 0.1mM) 1.01 ± 0.065; (concentration: 0.5mM) 1.09 ± 0.024.

As for WDR54 (UniProt Q9H977), the NP40-soluble protein abundance by setting is: (concentration: 0.1mM) 1.05 ± 0.058; (concentration: 0.5mM) 0.983 ± 0.1.

For the target PRKRIP1 (UniProt Q9H875), the NP40-soluble protein abundance (concentration: 0.1mM) is 0.888 ± 0.055 and the NP40-soluble protein abundance (concentration: 0.5mM) was 0.944 ± 0.066.

For UniProt Q9H7D7-2, the NP40-soluble protein abundance (concentration: 0.1mM) turned out to be 1 ± 0.042 and the NP40-soluble protein abundance (concentration: 0.5mM) came out at 1.01 ± 0.11.

On to ACTR8 (UniProt Q9H981), for which the NP40-soluble protein abundance (concentration: 0.1mM) came out at 1.04 ± 0.036 and the NP40-soluble protein abundance (concentration: 0.5mM) was 1.11 ± 0.046.

Regarding UniProt Q9H6K5 and related entries, the NP40-soluble protein abundance runs as follows: (concentration: 0.1mM) 1.02 ± 0.052; (concentration: 0.5mM) 0.963 ± 0.081.

RACGAP1 (UniProt Q9H0H5): the NP40-soluble protein abundance amounted to 1 ± 0.03 (concentration: 0.1mM) and 1.1 ± 0.034 (concentration: 0.5mM).

Take UniProt Q9H3Z4 and related entries: the NP40-soluble protein abundance is, setting by setting: (concentration: 0.1mM) 0.971 ± 0.076; (concentration: 0.5mM) 0.934 ± 0.042.

As to SRA1 (UniProt Q9HD15), the NP40-soluble protein abundance came to 1.02 ± 0.15 (concentration: 0.1mM) and 0.918 ± 0.14 (concentration: 0.5mM).

In the case of UniProt Q9H903 and related entries, the NP40-soluble protein abundance runs as follows: (concentration: 0.1mM) 1.08 ± 0.083; (concentration: 0.5mM) 0.994 ± 0.049.

With UniProt Q9H425 and related entries, the NP40-soluble protein abundance (concentration: 0.1mM) was found to be 0.987 ± 0.06 and the NP40-soluble protein abundance (concentration: 0.5mM) came to 1 ± 0.066.

On to TLNRD1 (UniProt Q9H1K6), for which the NP40-soluble protein abundance turned out to be 0.964 ± 0.05 (concentration: 0.1mM) and 1.048 ± 0.0076 (concentration: 0.5mM).

On to SCPEP1 (UniProt Q9HB40), for which the NP40-soluble protein abundance by setting is: (concentration: 0.1mM) 0.947 ± 0.028; (concentration: 0.5mM) 0.905 ± 0.12.

For BOLA2 (UniProt Q9H3K6), the NP40-soluble protein abundance (concentration: 0.1mM) came to 0.901 ± 0.053 and the NP40-soluble protein abundance (concentration: 0.5mM) was determined as 0.888 ± 0.086.

TNKS1BP1 (UniProt Q9C0C2): the NP40-soluble protein abundance reads like this: (concentration: 0.1mM) 1.02 ± 0.057; (concentration: 0.5mM) 1.07 ± 0.12.

As to PELI2 (UniProt Q9HAT8), the NP40-soluble protein abundance came out at 1.06 ± 0.039 (concentration: 0.1mM) and 1.01 ± 0.055 (concentration: 0.5mM).

For UniProt Q9H8E8 and related entries, the NP40-soluble protein abundance (concentration: 0.1mM) came to 0.988 ± 0.16 and the NP40-soluble protein abundance (concentration: 0.5mM) was 0.883 ± 0.13.

Regarding UniProt Q9HCE9 and related entries, the NP40-soluble protein abundance reads like this: (concentration: 0.1mM) 0.94 ± 0.13; (concentration: 0.5mM) 0.934 ± 0.14.

For TMEM165 (UniProt Q9HC07), the NP40-soluble protein abundance by setting is: (concentration: 0.1mM) 0.962 ± 0.061; (concentration: 0.5mM) 0.969 ± 0.11.

Consider UniProt Q9H7B2, for which the NP40-soluble protein abundance (concentration: 0.1mM) turned out to be 1.16 ± 0.094 and the NP40-soluble protein abundance (concentration: 0.5mM) was 1.18 ± 0.14.

With WDR13 (UniProt Q9H1Z4), the NP40-soluble protein abundance was determined as 0.996 ± 0.29 (concentration: 0.1mM) and 1.04 ± 0.067 (concentration: 0.5mM).

With CHMP1A (UniProt Q9HD42), the NP40-soluble protein abundance reads like this: (concentration: 0.1mM) 1.05 ± 0.11; (concentration: 0.5mM) 1.07 ± 0.17.

In the case of UniProt Q9HD47 and related entries, the NP40-soluble protein abundance by setting is: (concentration: 0.1mM) 0.986 ± 0.081; (concentration: 0.5mM) 0.985 ± 0.067.

As to UniProt Q9H0W8, the NP40-soluble protein abundance reads like this: (concentration: 0.1mM) 0.982 ± 0.02; (concentration: 0.5mM) 1.03 ± 0.052.

Take UniProt Q9HCI7 and related entries: the NP40-soluble protein abundance (concentration: 0.1mM) worked out at 1.17 ± 0.2 and the NP40-soluble protein abundance (concentration: 0.5mM) stood at 1.4 ± 0.23.

Turning to GLIPR2 (UniProt Q9H4G4), the NP40-soluble protein abundance (concentration: 0.1mM) was found to be 1.01 ± 0.045 and the NP40-soluble protein abundance (concentration: 0.5mM) is 1.01 ± 0.026.

Regarding C12orf65 (UniProt Q9H3J6), the NP40-soluble protein abundance stood at 0.795 ± 0.034 (concentration: 0.1mM) and 0.804 ± 0.037 (concentration: 0.5mM).

For UniProt Q9NP72 and related entries, the NP40-soluble protein abundance by setting is: (concentration: 0.1mM) 1.06 ± 0.055; (concentration: 0.5mM) 1.03 ± 0.051.

As to UniProt Q9H9Y6 and related entries, the NP40-soluble protein abundance was 1.12 ± 0.031 (concentration: 0.1mM) and 1.12 ± 0.049 (concentration: 0.5mM).

Consider SDF2L1 (UniProt Q9HCN8), for which the NP40-soluble protein abundance (concentration: 0.1mM) stood at 0.987 ± 0.029 and the NP40-soluble protein abundance (concentration: 0.5mM) came out at 0.961 ± 0.047.

Regarding MOV10 (UniProt Q9HCE1), the NP40-soluble protein abundance amounted to 1.04 ± 0.05 (concentration: 0.1mM) and 1.07 ± 0.025 (concentration: 0.5mM).

For UniProt Q9HC38-2|F6TLX2, the NP40-soluble protein abundance by setting is: (concentration: 0.1mM) 1.03 ± 0.084; (concentration: 0.5mM) 0.998 ± 0.13.

For VPS33B (UniProt Q9H267), the NP40-soluble protein abundance amounted to 1.04 ± 0.048 (concentration: 0.1mM) and 1.03 ± 0.082 (concentration: 0.5mM).

Turning to ZHX3 (UniProt Q9H4I2), the NP40-soluble protein abundance reads like this: (concentration: 0.1mM) 1.03 ± 0.049; (concentration: 0.5mM) 0.989 ± 0.03.

As to SPC25 (UniProt Q9HBM1), the NP40-soluble protein abundance by setting is: (concentration: 0.1mM) 1.002 ± 0.0014; (concentration: 0.5mM) 0.952 ± 0.06.

Regarding GPN2 (UniProt Q9H9Y4), the NP40-soluble protein abundance reads like this: (concentration: 0.1mM) 1.16 ± 0.21; (concentration: 0.5mM) 1.11 ± 0.022.

Regarding GORASP2 (UniProt Q9H8Y8), the NP40-soluble protein abundance runs as follows: (concentration: 0.1mM) 0.984 ± 0.023; (concentration: 0.5mM) 0.966 ± 0.042.

UniProt Q9NP87: the NP40-soluble protein abundance was determined as 1.05 ± 0.043 (concentration: 0.1mM) and 1.04 ± 0.14 (concentration: 0.5mM).

TAOK3 (UniProt Q9H2K8): the NP40-soluble protein abundance reads like this: (concentration: 0.1mM) 1.02 ± 0.053; (concentration: 0.5mM) 1.033 ± 0.0076.

For the target DSN1 (UniProt Q9H410), the NP40-soluble protein abundance came out at 1 ± 0.021 (concentration: 0.1mM) and 0.989 ± 0.023 (concentration: 0.5mM).
